Assay results from PubChem BioAssay AID1347075 (National Center for Advancing Translational Sciences (NCATS), 2019).
Screen size: about 400,000 compounds; about 5,500 (1.4%) were called active. Inconclusive results, whose numbers are uncertain, are shown with a selection of clear calls. The call rests on the fitted dose curve; in most records, active means well fitted cell-killing curve with a large enough effect; inconclusive means small, poorly fitted or top-dose-only effect, or effect the other way; inactive means flat fitted curve, though single readings scatter. Potencies of inconclusive entries are doubtful fits and often do not repeat.

experiment: qHTS assay for MDR1-selective chemotherapeutics: Primary screen using the parental adenocarcinoma cell KB-3-1; settings: KB-3-1 viability, CellTiter-Glo ATP luminescence, 72 h; activity change, negative = cytotoxic: at 46.1 µM (top of the series); further: nearly all actives have a fitted effect of over 60% in size
Method in brief: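 Screening of KB-3-1 cells (DMEM, 10% FBS, phenol-red free) ran from lowest to highest compound concentration; after 72 h at 37 °C viability was read luminescently and curves fitted.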
On the % scale 0 is the no-effect control and ±100 the full control effect; potency means the concentration at half of the fitted maximal effect.

SMILES | Potency | activity change, negative = cytotoxic
COc1ccc(Cl)cc1NS(=O)(=O)c1cccc(C(=O)NC2CCN(Cc3ccccc3)CC2)c1 | inactive | 
CC(=O)NCCNc1nc(NCC2CC2)nc2cc(-c3ccccc3)sc12 | inactive | 
COC(=O)c1c(N)[nH]c(C(=O)c2ccccc2)c1-c1ccc(Br)cc1 | inactive | 
Cn1cc(/C=N/NC(N)=S)c2ccccc21 | inconclusive: 1.64 µM [cytotoxic, full curve, poor fit] | 
COc1ccc(C2C(C(=O)Nc3cccc(C)n3)c3ccccc3C(=O)N2C)cc1 (stereo not drawn) | inactive | 
CN(C)c1ccc(/C=C/c2ccnc3ccccc23)cc1 | active: 11.6 µM | 
CC(=O)N1CCSc2ccc(S(=O)(=O)NCCc3ccc(C)cc3)cc21 | inconclusive: 29.1 µM [cytotoxic, single point] | 
Clc1cccc(Nc2nc(-c3ccncc3)nc3ccccc23)c1 | inactive | 
Cc1ccc2ncc(C(=O)NCc3ccccc3Cl)c(=O)n2c1 | inactive | 
COc1ccc(C(N)CCc2ccc(C)o2)cc1 (stereo not drawn) | inactive | 
COc1ccccc1Oc1ccc(S(=O)(=O)NCc2ccccn2)cc1 | inconclusive: 25.1 µM [cytotoxic, single point] | 
O=C(c1ccccc1)N1CCN(C(=O)c2ccc([N+](=O)[O-])cc2)CC1 |  | inconclusive: -1.73%
CCOC(=O)N1CCC(n2c(SCC(=O)NCc3ccco3)nc3ccsc3c2=O)CC1 | inconclusive: 13 µM [cytotoxic, partial curve, poor fit] | 
CCCCCCCCOC(=O)c1cc([N+](=O)[O-])c(Sc2ncnc3nc[nH]c23)c([N+](=O)[O-])c1 | inconclusive: 4.11 µM [cytotoxic, full curve, poor fit] | 
Cc1ccc(NC(=O)CSc2nc3ccccc3c3nc(CCn4cncc4C)nn23)cc1F | inconclusive: 16.4 µM [cytotoxic, single point] | 
O=C1C2CCCN2C(c2ccccc2F)N1c1ccc(Cl)cc1 (stereo not drawn) | inconclusive: 18.4 µM [cytotoxic, partial curve, poor fit] | 
CCn1c(SCC(=O)c2ccc(Cl)cc2)nnc1-c1ccoc1C | inactive | 
COc1ccc(-c2cc3nc(NCc4ccc(C)cc4C)n(C)c(=O)c3s2)cc1OC | active: 14.6 µM | 
Cc1occc(=O)c1OC(=O)Nc1ccc(Cl)c(Cl)c1 | inconclusive: 23.1 µM [cytotoxic, single point] | 
COc1cc(NC(=O)c2cc(C(C)C)on2)cc(OC)c1OC | inconclusive: 18.4 µM [cytotoxic, single point] | 
COC1=CC(=O)c2c(ccc3ncnc(N)c23)C1=O | active: 2.06 µM | 
Cc1cc(NC(=O)CN(C)CCOc2ccccc2)ccc1Br | inconclusive: 18.4 µM [rising, single point] | 
Cc1cc(Cl)ccc1OCCCC(=O)NNC(=O)c1ccncc1 | inconclusive: 29.1 µM [rising, single point] | 
COc1ccccc1NC(=O)N(Cc1ccco1)Cc1cc2cc(C)cc(C)c2[nH]c1=O | inconclusive: 18.4 µM [cytotoxic, single point] | 

SMILES | Potency | activity change, negative = cytotoxic
O=C(c1nc(-c2ccc(Cl)cc2)n2c1CCCCC2)N1CCN(c2ccccc2F)CC1 | inconclusive: 23.1 µM [cytotoxic, single point] | 
COc1cc(NC(=O)c2c(-c3ccc(C)cc3)nnc3ccccc23)cc(OC)c1OC | inactive | 
COc1ccccc1NS(=O)(=O)c1cccc(NC(=O)Nc2ccccc2)c1 | inconclusive: 23.1 µM [cytotoxic, single point] | 
Oc1cccc(-c2nnc(-c3cccc(O)c3)nn2)c1 | inconclusive: 18.4 µM [cytotoxic, single point] | 
COc1cc(/C=N/N2C(=O)CSC2=S)ccc1O | inconclusive: 14.6 µM [rising, partial curve] | 
COc1ccc(S(=O)(=O)Nc2cccc(-c3ccc(N4CCOCC4)nn3)c2)cc1F | inactive | 
CC(C)(C)NC(=O)NC(=O)CSc1nnc(-c2ccccc2F)n1N | inactive | 
CC(C)=CC1C(C(=O)NCCc2ccccc2)C1(C)C (stereo not drawn) | inactive | 
CC(=O)c1ccc(N2C(=O)N(Cc3cccc(C(F)(F)F)c3)c3ccccc3S2(=O)=O)cc1 | inconclusive: 20.6 µM [cytotoxic, single point] | 
O=S(=O)(Nc1ccc(-c2csc(-c3ccccc3)n2)cc1)c1ccc(F)cc1 | inconclusive: 23.1 µM [cytotoxic, single point] | 
COc1ccc(NC(=O)C[C@H]2C(=O)N(c3ccccc3)C[C@@H]2Cc2ccccc2)cc1 | inactive | 
Cn1cncc1C#Cc1c(C=O)[nH]c2ccccc12 | inconclusive: 23.1 µM [cytotoxic, single point] | 
CSc1nc2nc(-c3ccccc3)cc(=O)n2[nH]1 | inactive | 
CCN(CC)c1ccc(N=Cc2cc(Br)ccc2O)cc1 | inconclusive: 1.3 µM [cytotoxic, full curve, poor fit] | 
O=C(Cc1cccs1)NCCS(=O)(=O)N1CCN(c2ccccc2F)CC1 | active: 11.6 µM | 
Cc1ccc(-n2nnnc2-c2cccnc2)cc1 | inactive | 
CC1(C(=O)Nc2ccc3c(c2)OCO3)Cc2c(-c3ccccc3)ccnc2O1 (stereo not drawn) | inconclusive: 29.1 µM [cytotoxic, single point] | 
O=C1NC(=O)N(Cc2ccccc2)CC1Br (stereo not drawn) |  | inconclusive: -48.7%
COc1ccc(/C=C/C(=O)NCc2ccc3c(c2)OCO3)cc1OC | inconclusive: 29.1 µM [cytotoxic, single point] | 
COc1cc(OC)cc(C(=O)NCC(=O)OCC(=O)Nc2ncc(Cl)cc2Cl)c1 | inactive | 
O=C(O)CCc1cccnc1 |  | inconclusive: -2.82%
C=CCN(CC=C)C(=S)NC(=O)c1ccc(-c2ccccc2)cc1 | inconclusive: 23.1 µM [cytotoxic, single point] | 
CC(NC(=O)c1cccc(Nc2nc3ccccc3n3nnnc23)c1)c1ccccc1 (stereo not drawn) | inconclusive: 20.6 µM [cytotoxic, partial curve] | 
C/C(O)=c1/cnc2nc3ccccc3n2c1=O | inconclusive: 16.4 µM [cytotoxic, single point] | 

Three entries drawn at random from those above:
SMILES | Potency | activity change, negative = cytotoxic
O=C1C2CCCN2C(c2ccccc2F)N1c1ccc(Cl)cc1 (stereo not drawn) | inconclusive: 18.4 µM [cytotoxic, partial curve, poor fit] | 
CC(C)=CC1C(C(=O)NCCc2ccccc2)C1(C)C (stereo not drawn) | inactive | 
COc1ccc(/C=C/C(=O)NCc2ccc3c(c2)OCO3)cc1OC | inconclusive: 29.1 µM [cytotoxic, single point] | 
